# Source: patent publication US9439918B2 (priority 2008, dated 2016)
# For at least one compound, name, drawing or mass did not settle the structure.
# Legend:
# [1] = system: Shigella spp. (40); experiment: MIC, CLSI broth microdilution; type: cell-based; parameters: unit not given beside the values; conditions: 40 strains
# [2] = system: Salmonella spp. (20); experiment: MIC, CLSI broth microdilution; type: cell-based; parameters: unit not given beside the values; conditions: 20 strains
smiles,measurement,setting,value
"CC[C@H]1OC(=O)[C@@](C)(F)C(=O)[C@H](C)[C@@H](OC2OC(C)CC(N(C)C)C2O)[C@@](C)(OC)C[C@@H](C)C(=O)[C@H](C)[C@H]2N(CCCCn3cc(-c4cccc(N)c4)nn3)C(=O)O[C@]12C (some centres unmarked) [CEM-101, 11-N-4-(3-aminophenyl)-[1,2,3]triazol-1-yl]-butyl-5-desosaminyl-3-oxo-2-fluoro-erythronolide A,-11,12-cyclic carbamate]",MIC Range,[1],1->16
same,MIC Range,[2],1->16
